Assay results from PubChem BioAssay AID192 (DTP/NCI, 2004).
The list is a part of this screen's results and no random one: it is rich in T/C values a quarter to a half above the control, in often repeated tests (any T/C) and in doses without a T/C. Other doses and runs of a compound stand elsewhere. T/C: endpoint of the treated group in % of that of the vehicle group. Some doses have a count of surviving animals in place of a T/C: the source files T/C as zero there, which appears to mark a toxic dose or a test without result, not a measured value. Some doses without a T/C left all or most animals alive at the check, yet need not have been tolerated: the source hardly ever lists a survival T/C far under the control, and the zero likely stands for such cases as well. Counts of survivors are from the toxicity check (mostly the fifth day) where no day follows; animals may have died later. Schedules are NCI's codes, read here as Q, the interval in days (D) or hours (H), X, the number of doses. Some doses were run more than once; their values stand side by side, smallest first. For survival time, the PubChem record calls one and a half times the control and up active, and a quarter to a half above the control has no call in these data; cut-offs in other NCI protocols can differ. Some T/C values carry the count of animals alive at the toxicity check (mostly the fifth day); where none is given, no animal had died by that day.

Tested on: BDF1 mice, B16 melanoma ip, median survival T/C
Assay: NCI In Vivo Anticancer Drug Screen. Data for tumor model B16 Melanoma (intraperitoneal) in B6D2F1 (BDF1) mice
Details: T/C endpoint: median survival time, higher T/C = longer survival
Outline: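 Vehicle-treated animals serve as the reference (C); treated animals (T) are scored for survival or tumor size after tumor transplantation.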

[1] = dose: 12.5 mg/kg/injection, schedule: Q01DX009 (ip), vehicle: saline with Tween-80
[2] = dose: 200.0 mg/kg/injection, schedule: Q01DX009 (ip), vehicle: saline
[3] = dose: 200.0 mg/kg/injection, schedule: Q01DX009 (ip), vehicle: Klucel (hydroxypropylcellulose) (HPC)
[4] = dose: 400.0 mg/kg/injection, schedule: Q01DX009 (ip), vehicle: saline with Tween-80
[5] = dose: 100.0 mg/kg/injection, schedule: Q01DX009 (ip), vehicle: saline with Tween-80
[6] = dose: 50.0 mg/kg/injection, schedule: Q01DX009 (ip), vehicle: saline
[7] = dose: 100.0 mg/kg/injection, schedule: Q01DX009 (ip), vehicle: saline
[8] = dose: 200.0 mg/kg/injection, schedule: Q01DX009 (ip), vehicle: saline with Tween-80
[9] = dose: 5.0 mg/kg/injection, schedule: Q01DX009 (ip), vehicle: Klucel (hydroxypropylcellulose) (HPC)
[10] = dose: 100.0 mg/kg/injection, schedule: Q01DX009 (ip), vehicle: Klucel (hydroxypropylcellulose) (HPC)
[11] = dose: 400.0 mg/kg/injection, schedule: Q01DX009 (ip), vehicle: Klucel (hydroxypropylcellulose) (HPC)

`ClCCN(CCCl)CCN1c2ccccc2Sc2ccccc21` was tested, and the T/C (dose: 0.78 mg/kg/injection, schedule: Q01DX009 (ip), vehicle: saline with Tween-80) was 125 % of control, the T/C (dose: 3.12 mg/kg/injection, schedule: Q01DX009 (ip), vehicle: saline with Tween-80) was 127 and 127 % of control [9 of 10 alive] and the T/C (dose: 6.25 mg/kg/injection, schedule: Q01DX009 (ip), vehicle: saline with Tween-80) was 134 % of control. For the same compound, the T/C [1] was 147 % of control, the survivor count [1] was 7 of 10 and the T/C (dose: 12.5 mg/kg/injection, schedule: Q04DX003 (ip), vehicle: Klucel (hydroxypropylcellulose) (HPC)) was 137 % of control. The survivor count (dose: 25.0 mg/kg/injection, schedule: Q01DX009 (ip), vehicle: saline with Tween-80) was 0 of 10, the T/C (dose: 25.0 mg/kg/injection, schedule: Q04DX003 (ip), vehicle: Klucel (hydroxypropylcellulose) (HPC)) was 144 % of control and the survivor count (dose: 50.0 mg/kg/injection, schedule: Q04DX003 (ip), vehicle: Klucel (hydroxypropylcellulose) (HPC)) was 10 of 10.
With `CCN(CC)CCN(C)CCN(CC)CC` the survivor count [2] was 9 of 10.
With `CC(=O)CC(=O)Oc1ccccc1OC(C)=O` the survivor count [3] was 8 of 10.
In the case of `Cc1ncc([N+](=O)[O-])n1CCSC(N)=O`, the survivor count (dose: 50.0 mg/kg/injection, schedule: Q01DX009 (ip), vehicle: saline with Tween-80) is reported as 9 of 10 and the survivor count [4] is reported as 5 of 10.
In the case of `CCC(C)C(CO)c1ccccc1` (stereo not drawn), the survivor count [5] is reported as 10 of 10.
For `Cc1c(Cl)ccc2c(C(O)CBr)cc(-c3ccccc3)nc12` (stereo not drawn), the survivor count [4] was 10 of 10.
For `CC(=O)OC/C=C(C)/C=C/C=C(C)/C=C/C1=C(C)CCCC1(C)C`, the survivor count (dose: 400.0 mg/kg/injection, schedule: Q01DX005 (ip), vehicle: saline with Tween-80) was 10 of 10, the survivor count (dose: 800.0 mg/kg/injection, schedule: Q01DX005 (ip), vehicle: saline with Tween-80) was 10 of 10 and the survivor count (dose: 1600.0 mg/kg/injection, schedule: Q01DX005 (ip), vehicle: saline with Tween-80) was 9 of 10. For the same compound, the survivor count (dose: 2400.0 mg/kg/injection, schedule: Q01DX005 (ip), vehicle: saline with Tween-80) was 1 of 10.
`C[n+]1ccc2cc(N)c3c4ccccc4sc3c2c1` was tested, and the survivor count (dose: 25.0 mg/kg/injection, schedule: Q01DX009 (ip), vehicle: Klucel (hydroxypropylcellulose) (HPC)) was 10 of 10, the survivor count (dose: 50.0 mg/kg/injection, schedule: Q01DX009 (ip), vehicle: Klucel (hydroxypropylcellulose) (HPC)) was 0 of 10 and the survivor count [6] was 0 of 10. The survivor count [7] was 0 of 10 and the survivor count [2] was 0 of 10.
`COc1cc2c(c(OC)c1OC)-c1ccc(OC)c(=O)cc1[C@@H](NC(=O)CCl)CC2` was tested, and the T/C (dose: 0.06 mg/kg/injection, schedule: Q01DX009 (ip), vehicle: saline with Tween-80) was 128 and 129 % of control, the T/C (dose: 0.13 mg/kg/injection, schedule: Q01DX009 (ip), vehicle: saline with Tween-80) was 133 and 136 % of control and the T/C (dose: 0.25 mg/kg/injection, schedule: Q01DX009 (ip), vehicle: saline with Tween-80) was 135 % of control. For the same compound, the survivor count (dose: 0.5 mg/kg/injection, schedule: Q01DX009 (ip), vehicle: saline with Tween-80) was 9 of 10 and the survivor count (dose: 1.0 mg/kg/injection, schedule: Q01DX009 (ip), vehicle: saline with Tween-80) was 7 of 10 and 9 of 10.
In the case of `CCOC(=O)N1CCN(CCCCCOc2ccc(CC(C)(C)C)cc2Cl)CC1`, the survivor count [6] is reported as 8 of 10, the survivor count [7] is reported as 10 of 10 and the survivor count [2] is reported as 6 of 10.
`O=C(Oc1ccc(-c2ccc(Br)cc2)cc1)c1ccco1` was tested, and the survivor count [5] was 10 of 10, the survivor count [8] was 10 of 10 and the survivor count [4] was 10 of 10.
In the case of `COC(=O)[C@H]1[C@H]2C[C@@H]3c4[nH]c5ccccc5c4CCN3C[C@H]2C[C@@H](OC(=O)c2cc(OC)c(OC)c(OC)c2)[C@@H]1OC`, the survivor count (dose: 0.11 mg/kg/injection, schedule: Q01DX009 (ip), vehicle: Klucel (hydroxypropylcellulose) (HPC)) is reported as 10 of 10, the survivor count (dose: 0.23 mg/kg/injection, schedule: Q01DX009 (ip), vehicle: Klucel (hydroxypropylcellulose) (HPC)) is reported as 10 of 10 and the survivor count (dose: 0.46 mg/kg/injection, schedule: Q01DX009 (ip), vehicle: Klucel (hydroxypropylcellulose) (HPC)) is reported as 9 of 10. The survivor count (dose: 0.93 mg/kg/injection, schedule: Q01DX009 (ip), vehicle: Klucel (hydroxypropylcellulose) (HPC)) was 10 of 10 and the survivor count (dose: 1.87 mg/kg/injection, schedule: Q01DX009 (ip), vehicle: Klucel (hydroxypropylcellulose) (HPC)) was 10 of 10.
`C[C@H]1C/C=C/[C@H]2[C@@H]3O[C@]3(C)[C@@H](C)[C@H]3[C@H](Cc4ccccc4)NC(=O)[C@]32OC(=O)O/C=C/[C@@](C)(O)C1=O` was tested, and the survivor count [9] was 10 of 10.
`C=CCNc1ccc(OC)cc1` was tested, and the survivor count [8] was 6 of 10.
With `CS(=O)(=O)OCC(O)C(O)COS(C)(=O)=O` (stereo not drawn) the T/C (dose: 400.0 mg/kg/injection, schedule: Q01DX009 (ip), vehicle: saline with Tween-80, evaluated on day 45) was 137 % of control and the T/C (dose: 400.0 mg/kg/injection, schedule: Q01DX009 (ip), vehicle: saline with Tween-80, evaluated on day 60) was 130 % of control.
With `Cc1ccc(C2(O)CCN(CCCC(=O)c3ccc(F)cc3)CC2)cc1` the survivor count [10] was 4 of 10, the survivor count [3] was 0 of 10 and the survivor count [11] was 0 of 10.
With `OCC1OC(n2cnc3c(=S)nc[nH]c32)C(O)C1O` (stereo not drawn) the survivor count (dose: 400.0 mg/kg/injection, schedule: Q01DX009 (ip), vehicle: saline sonified) was 6 of 6, the survivor count [4] was 6 of 6 and the survivor count (dose: 800.0 mg/kg/injection, schedule: Q01DX009 (ip), vehicle: saline sonified) was 5 of 6.
In the case of `CN(C)c1ccc(C(=C2C=CC(=[N+](C)C)C=C2)c2ccc(N(C)C)cc2)cc1` (tested in a mixture with another compound), the survivor count (dose: 5.0 mg/kg/injection, schedule: Q01DX009 (ip), vehicle: saline with Tween-80) is reported as 9 of 10.
In the case of `Oc1ccccc1N=Cc1ccc(C=Nc2ccccc2O)cc1`, the survivor count (dose: 300.0 mg/kg/injection, schedule: Q01DX009 (ip), vehicle: gum acacia) is reported as 10 of 10.
For `N[C@H](C(=O)O)[C@H]1ON=C(Cl)[C@@H]1O`, the T/C (dose: 32.0 mg/kg/injection, schedule: Q01DX009 (ip), vehicle: saline) was 131 % of control [9 of 10 alive] and the T/C (dose: 128.0 mg/kg/injection, schedule: Q01DX009 (ip), vehicle: saline) was 132 % of control.
For `O=C(/C=C/C(=O)OCC(Cl)(Cl)Cl)OCC(Cl)(Cl)Cl`, the survivor count [4] was 10 of 10.
In the case of `O=C1C=CC(=O)N1c1ccc(Cl)cc1`, the survivor count (dose: 2.5 mg/kg/injection, schedule: Q01DX009 (ip), vehicle: Klucel (hydroxypropylcellulose) (HPC)) is reported as 10 of 10, the survivor count [9] is reported as 10 of 10 and the survivor count (dose: 10.0 mg/kg/injection, schedule: Q01DX009 (ip), vehicle: Klucel (hydroxypropylcellulose) (HPC)) is reported as 10 of 10. The survivor count (dose: 20.0 mg/kg/injection, schedule: Q01DX009 (ip), vehicle: Klucel (hydroxypropylcellulose) (HPC)) was 3 of 10 and the survivor count (dose: 40.0 mg/kg/injection, schedule: Q01DX009 (ip), vehicle: Klucel (hydroxypropylcellulose) (HPC)) was 0 of 10.
With `CCC1CN2C(=N1)c1ccccc1-c1cc(Cl)ccc12` (stereo not drawn) the T/C (dose: 25.0 mg/kg/injection, schedule: Q01DX009 (ip), vehicle: suspension in saline) was 132 % of control, the survivor count (dose: 80.0 mg/kg/injection, schedule: Q01DX009 (ip), vehicle: saline) was 0 of 10 and the survivor count (dose: 160.0 mg/kg/injection, schedule: Q01DX009 (ip), vehicle: saline) was 0 of 10.
For `CC(COCc1ccccc1)NCc1ccccc1` (stereo not drawn), the survivor count [10] was 8 of 10.
For `COC1NC(=O)NC(=O)C1=[N+]=[N-]` (stereo not drawn), the T/C (dose: 4.0 mg/kg/injection, schedule: Q01DX009 (ip), vehicle: water) was 131 % of control, the T/C (dose: 8.0 mg/kg/injection, schedule: Q01DX009 (ip), vehicle: water) was 134 % of control and the survivor count (dose: 16.0 mg/kg/injection, schedule: Q01DX009 (ip), vehicle: water) was 4 of 10.
With `[O-][n+]1c(CN2CCCCC2)nc2cccc3c2c1-c1ccccc1-3` the T/C [11] was 129 % of control.
